Measured values reported in PMC5368982.
For at least one entry, the source does not settle the construct or the ends of the probe. At least one verdict rests on a figure or table, not on a statement of the authors.

Target: SLBP (histone stem-loop binding protein) (UniProt Q14493)
Assay: EMSA
Conditions: with T-1 trigger; none; EMSA: 1x NT2 buffer, 1 mM DTT, RNaseOUT, 50 uL, room temperature 1 h, 1.25 ug SLBP (~37 pmol), native 8% PAGE in 1x TB; recombinant protein

GGGCAAACACCAUUGUCAAAAGGCUCUUUUCAGAGCCACACUCCA / UGGAGUGUGACAAUGGUGUUUG [B-1a + T-1 (trans-3WJ)]
binding result: binds
